Experimental data: patent publication US20240209043A1, “NON-ANTIBODY BINDING PEPTIDES AND THEIR ANALOGS DUAL-TARGETING TO PD-1 AND PD-L1, AND USES THEREOF” (ORAL SUBSIDIARY SUN YAT-SEN UNIVERSITY HOSPITAL, priority 2021, published 2024)
pKd: −log10 of the molar value. Entries after “also recorded” stand apart in the source; their conditions may differ. Read-outs that look alike come from different tables or passages of the source. At least one peptide structure holds a part that was inferred or is arguable (an end, a ring closure or a residue). For part of these data: At least one structure is not confirmed: it was looked up by name or label, or the drawing left a doubt. Bridges are numbered along the chain shown (N, C = ends). Roman numbers before positions name the chains, in order. Where no end group is shown, it is not given here.

Chains of the proteins cited; added tags and fusions are not shown. Residues count along the entry.
UniProt Q15116, 25-167 limits assumed: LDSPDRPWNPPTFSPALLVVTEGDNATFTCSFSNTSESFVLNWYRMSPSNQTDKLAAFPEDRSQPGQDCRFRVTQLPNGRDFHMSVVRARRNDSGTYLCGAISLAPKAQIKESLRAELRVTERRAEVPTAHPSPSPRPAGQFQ
UniProt Q15116, 25-288: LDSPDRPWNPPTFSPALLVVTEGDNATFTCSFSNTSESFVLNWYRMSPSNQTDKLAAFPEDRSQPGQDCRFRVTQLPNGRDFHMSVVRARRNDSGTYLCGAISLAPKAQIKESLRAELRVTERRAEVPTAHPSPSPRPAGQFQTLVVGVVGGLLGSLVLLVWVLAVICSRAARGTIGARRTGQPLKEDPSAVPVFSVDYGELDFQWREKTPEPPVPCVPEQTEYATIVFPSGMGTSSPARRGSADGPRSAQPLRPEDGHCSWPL

Legend:
[1] = molecular target: PD-1 (Homo sapiens, UniProt Q15116); assay: SPR affinity assay on recombinant Human PD-1 protein (Biocore T100, CM5 chip); assay type: binding; design: purchased Acro Biosystems PD1-H5221; conditions: for pKd: read-out: Kd-value, binding to PD-1
Protocol: The affinity of the peptides was tested with Biocore T100 through surface plasmon resonance (SPR) technique. […] Finally, the affinities (Kd-value) of the peptides were calculated by fitting curves in the sensor diagram in Biacore software.
The binding affinities (Kd-value) of nABP386, nABP486, and nABP786 to PD-1 were detected by Surface plasma resonance (SPR), respectively.

[2] = molecular target: PD-L1 (Homo sapiens, UniProt Q9NZQ7); assay: SPR affinity assay on recombinant Human PD-L1 protein (CM5 chip); design: purchased Acro Biosystems PD1-H82F3; conditions: read-out: Kd-value, binding to PD-L1
[3] = molecular target: T1, PD-1 on the surface of Jurkat T cells (Homo sapiens, UniProt Q15116); assay: Immunofluorescence and flow cytometry analysis of specific binding of FITC-stained peptides to Jurkat T cells; assay type: cell-based; conditions: immunofluorescence; Jurkat T cells stimulated by PMA and ionomycin vs without stimulation; 10 μM FITC peptide
T1 construct: when Jurkat cells were stimulated by PMA, they highly expressed PD-1; endogenous in cells; host or cells: Jurkat T cells stimulated with PMA and ionomycin
Protocol: (§1) Experiments were divided into an experimental group and a control group. In the experimental group, Jurkat T cells were stimulated for 24 hours with 50 ng/ml of Phorbol 12-myristate 13-acetate (PMA) and 1 ug/ml of Ionomycin Calcium Salt (Ionomycin) to express PD-1, while in the control group, Jurkat T cells were not stimulated and thus hardly expressed any PD-1. For immunofluorescence analysis, Jurkat T cells (1×10^6) were obtained and blocked with 2% BSA for 1 hour at room temperature to decrease specific binding. After blocking, the cells were collected and incubated with 10 μM of peptides stained with FITC (green fluorescence) for 1 hour at 37° C. PBS was used for washing the cells three times and 4% paraformaldehyde was used for immobilization. […] PBS was used for washing three times again and anti-fade mounting medium was used for preserving fluorescence. Further, fluorescence confocal microscope images were analyzed by using Image J software to evaluate the ability of polypeptides to compete the binding sites of PD-1. […] Subsequently, the cells were incubated with 10 μM or 40 μM of peptides stained with FITC (green fluorescence) for 1 hour at 4° C. PBS was used for washing three times, and finally 500 ul of PBS was used for resuspending the cells, which were then transferred to flow tubes and analyzed by flow cytometry (CytoFLEX, BECK MANCOULTER, America).

[4] = system: PD-1/PD-L1 interaction in Jurkat T / Cal27 co-culture; assay: Co-culture of stimulated Jurkat T cells and stimulated Cal27 cells, IL-2 ELISA; assay type: cell-based, Human; conditions: 10 μM peptide or 2 ug/ml antibody, 24 hours co-culture, compared with the control group
Protocol: 50 ng/ml of Phorbol 12-myristate 13-acetate (PMA) and 1 ug/ml of Ionomycin Calcium Salt (Ionomycin) were used for stimulating Jurkat T cells for 24 hours, and 500 U/ml of IFN-γ was used for stimulating CAL27 cells for 48 hours. The stimulated Jurkat T cells were incubated with 10 μM of nABP284, 10 μM of nABP386, 10 μM of nABP486, and 2 ug/ml of PD-1 functional monoclonal antibody (J116, eBioscience|ThermoFisher Science) for 1 hour in advance at 37° C., respectively, and the stimulated CAL27 cells were added to the 96-well plate at 1×10^4 cells per well. When CAL27 cells were immobilized, a supernate was removed. The Jurkat T cells at a ratio of 4 to 1 and 200 ul of medium were added to each well. After these cells were co-cultured for 24 hours, a supernate was collected and analyzed by ELISA kit (88-7025-86, Thermo Fisher Scientific) to measure the amount of IL-2 in the supernate.

[5] = molecular target: T2, recombinant Human PD-L1 protein binding to PD-1-expressing Jurkat T cells (Homo sapiens, UniProt Q15116); assay: Neutralization of recombinant Human PD-L1 protein binding to PD-1-expressing Jurkat T cells (flow cytometry); assay type: cell-based; conditions: peptide 0.4-40 μM mixed with PD-L1 protein, stimulated Jurkat T cells
T2 construct: when Jurkat cells were stimulated by PMA, they highly expressed PD-1; host or cells: Jurkat T cells stimulated with PMA and ionomycin
Protocol: The Jurkat T cells were divided into two groups, an experimental group and a control group, wherein in the experimental group, 50 ng/ml of Phorbol 12-myristate 13-acetate (PAM) and 1 ug/ml of Ionomycin Calcium Salt (Ionomycin) were used to stimulate the cells, and in the control group, Jurkat T cells were unstimulated. The cells (5×10^5) were collected in each tube, and washed once with FACS buffer (PBS with 2% BSA). Then recombinant Human PD-L1 protein (PD1-H82F3, Acro Biosystems) was diluted to 4 ug/ml with FACS, and PD-1 binding peptides were diluted with FACS to a series of concentrations of 0.4 μM, 1.33 μM, 4 μM, 13.3 μM, and 40 μM. Subsequently, the two working solutions (PD-L1 protein diluent and peptide diluent) were mixed in an equal volume and 100 ul of mixed solutions at different concentrations were added to the centrifuge tubes together with the cells, incubated for 1 hour at 4° C. FACS buffer was used for washing the cells three times, and 0.12 ug/ml of APC Streptavidin (405207, Biolegend) was added to each tube and the incubation was performed for 1 hour at 4° C., and then the cells were washed three times with FACS buffer again, and 500 μl of PBS was added to resuspend the cells, which were further transferred to flow tubes and analyzed by flow cytometry.
Further, neutralization capacity of nABP284 and new peptides to recombinant Human PD-L1 protein were studied. […]

[6] = molecular target: T3, PD-1 expressed on the surface of stimulated Jurkat T cells (Homo sapiens, UniProt Q15116); assay: Blocking capacity: competitive binding to PD-1 on stimulated Jurkat T cells (immunofluorescence, mean fluorescence intensity); assay type: cell-based; conditions: 1 hour incubation, equal concentration
T3 construct: when Jurkat cells were stimulated by PMA, they highly expressed PD-1; endogenous in cells; host or cells: Jurkat T cells stimulated with PMA and ionomycin
Protocol: as §1, with “America). […]” for “America).”

| Substance | binding affinity to PD-1, in words [1] | pKd ([2]; recombinant Human PD-L1 protein coated on CM5 chip) | pKd ([2]; recombinant Human PD-L1 protein) | specific binding to PD-1 on the cell surface [3] | secretion level of IL-2 in the co-culture system [4] | neutralization capacity to recombinant Human PD-L1 protein [5] | blocking capacity on PD-1 (mean fluorescence intensity) [6] | pKd ([1]; recombinant Human PD-1 protein coated on CM5 chip) | pKd ([1]; recombinant Human PD-1 protein) |
| --- | --- | --- | --- | --- | --- | --- | --- | --- | --- |
| I: SHHHRLKLKEIANSPTQFWRMVARNTLGNGAKQSLNIEHA / II: SHHHRL (amide I:7-II:C) [nABP486] | significantly higher than that of nABP284 | 7.27 | 7.27 | could bind to PD-1-expressing Jurkat T cells stimulated by PMA and ionomycin, but hardly bind to Jurkat T cells without stimulation; also recorded: can specifically bind to PD-1 on the surface of lymphocytes | significantly increased; also recorded: the inhibition of stimulated Jurkat cells could be reversed; also recorded: more significant effect than anti-PD-1 antibody; also recorded: recover the secretion of IL-2 | can be inhibited; also recorded: stronger than that of nABP284; also recorded: competes with PD-L1 ligand to bind to a PD-1 receptor on the surface of Jurkat T | have a blocking capacity on PD-1 expressed on the surface of stimulated Jurkat T cells; also recorded: stronger blocking capacity than nABP284 and nABP386 |  |  |
| I: SRLKEIANSPTQFWRMVARNTLGNHAKQSLNIEHA / II: SHHHRL (amide I:27-II:C) [nABP386] | significantly higher than that of nABP284 |  |  | could bind to PD-1-expressing Jurkat T cells stimulated by PMA and ionomycin, but hardly bind to Jurkat T cells without stimulation; also recorded: can specifically bind to PD-1 on the surface of lymphocytes | significantly increased; also recorded: the inhibition of stimulated Jurkat cells could be reversed; also recorded: recover the secretion of IL-2 | can be inhibited; also recorded: stronger than that of nABP284; also recorded: competes with PD-L1 ligand to bind to a PD-1 receptor on the surface of Jurkat T | have a blocking capacity on PD-1 expressed on the surface of stimulated Jurkat T cells; also recorded: no significance difference between nABP284 and nABP386 | 7.12 | 7.12 |
| SRLKEIANSPTQFWRMVARNTLGGAKQSLNIEHARL [nABP284, reference compound] |  |  |  |  |  |  |  |  | 4.93 |
